Test results taken from ChEMBL document CHEMBL1909046, “DrugMatrix in vitro pharmacology data”.

By UniProt entry, the sequences of proteins in these tests, tags left out. Where a name states a change or a piece, a line headed by the entry shows the natural chain unless it says otherwise. Residues count along the entry.
UniProt P32245, whole entry: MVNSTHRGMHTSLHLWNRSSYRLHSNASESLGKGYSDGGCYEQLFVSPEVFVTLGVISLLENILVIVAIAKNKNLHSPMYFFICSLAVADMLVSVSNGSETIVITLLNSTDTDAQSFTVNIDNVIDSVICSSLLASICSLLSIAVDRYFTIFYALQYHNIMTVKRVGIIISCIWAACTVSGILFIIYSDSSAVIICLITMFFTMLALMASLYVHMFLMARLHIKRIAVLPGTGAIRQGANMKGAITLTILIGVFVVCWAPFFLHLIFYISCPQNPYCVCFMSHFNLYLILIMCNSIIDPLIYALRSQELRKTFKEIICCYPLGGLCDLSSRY
UniProt O70528: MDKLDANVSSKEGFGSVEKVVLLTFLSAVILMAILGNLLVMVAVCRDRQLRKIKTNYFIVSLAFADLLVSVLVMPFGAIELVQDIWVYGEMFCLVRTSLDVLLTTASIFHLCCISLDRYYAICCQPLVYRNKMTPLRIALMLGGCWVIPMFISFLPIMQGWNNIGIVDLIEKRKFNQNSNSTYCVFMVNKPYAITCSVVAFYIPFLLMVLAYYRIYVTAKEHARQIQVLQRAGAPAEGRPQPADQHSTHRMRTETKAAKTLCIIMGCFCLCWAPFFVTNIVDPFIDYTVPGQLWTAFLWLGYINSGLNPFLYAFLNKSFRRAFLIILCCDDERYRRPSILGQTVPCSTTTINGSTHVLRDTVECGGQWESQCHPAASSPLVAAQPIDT
UniProt P29476, whole entry: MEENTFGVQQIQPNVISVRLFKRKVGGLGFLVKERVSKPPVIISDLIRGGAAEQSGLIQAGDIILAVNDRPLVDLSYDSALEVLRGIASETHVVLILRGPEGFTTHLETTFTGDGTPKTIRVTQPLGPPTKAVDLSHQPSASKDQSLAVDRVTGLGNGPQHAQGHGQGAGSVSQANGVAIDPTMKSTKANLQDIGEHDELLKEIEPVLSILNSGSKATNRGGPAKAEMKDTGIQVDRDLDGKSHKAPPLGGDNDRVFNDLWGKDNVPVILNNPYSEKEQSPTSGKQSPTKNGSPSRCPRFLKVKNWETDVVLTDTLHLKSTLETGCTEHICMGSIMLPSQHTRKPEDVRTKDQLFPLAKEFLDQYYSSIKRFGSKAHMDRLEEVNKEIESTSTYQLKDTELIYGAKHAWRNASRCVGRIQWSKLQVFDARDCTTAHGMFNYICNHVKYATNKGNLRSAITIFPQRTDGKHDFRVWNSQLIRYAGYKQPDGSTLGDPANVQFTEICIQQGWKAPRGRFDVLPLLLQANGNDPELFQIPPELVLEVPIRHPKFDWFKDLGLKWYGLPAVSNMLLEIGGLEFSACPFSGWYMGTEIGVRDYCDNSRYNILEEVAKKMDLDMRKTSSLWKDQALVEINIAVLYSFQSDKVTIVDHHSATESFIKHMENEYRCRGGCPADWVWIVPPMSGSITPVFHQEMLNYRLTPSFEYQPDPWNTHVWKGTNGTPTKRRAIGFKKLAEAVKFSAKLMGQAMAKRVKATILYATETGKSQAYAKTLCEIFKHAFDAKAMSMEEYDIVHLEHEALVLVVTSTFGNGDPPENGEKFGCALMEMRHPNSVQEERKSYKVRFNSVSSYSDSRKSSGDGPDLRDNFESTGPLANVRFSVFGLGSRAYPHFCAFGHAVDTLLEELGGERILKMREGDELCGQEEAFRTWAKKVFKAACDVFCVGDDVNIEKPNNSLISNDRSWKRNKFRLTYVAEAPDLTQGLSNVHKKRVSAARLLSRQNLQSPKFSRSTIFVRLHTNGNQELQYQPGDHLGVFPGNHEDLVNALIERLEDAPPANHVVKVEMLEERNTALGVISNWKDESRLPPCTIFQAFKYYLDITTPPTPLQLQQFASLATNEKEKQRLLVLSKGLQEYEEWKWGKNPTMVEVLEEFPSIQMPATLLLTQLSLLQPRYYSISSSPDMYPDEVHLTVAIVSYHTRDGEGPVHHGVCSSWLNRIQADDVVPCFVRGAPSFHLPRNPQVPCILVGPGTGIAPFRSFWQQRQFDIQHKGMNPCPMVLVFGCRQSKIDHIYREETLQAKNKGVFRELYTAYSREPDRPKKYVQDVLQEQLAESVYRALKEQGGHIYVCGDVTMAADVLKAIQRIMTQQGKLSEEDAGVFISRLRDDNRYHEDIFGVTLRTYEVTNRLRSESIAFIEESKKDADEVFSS
UniProt P23219, whole entry: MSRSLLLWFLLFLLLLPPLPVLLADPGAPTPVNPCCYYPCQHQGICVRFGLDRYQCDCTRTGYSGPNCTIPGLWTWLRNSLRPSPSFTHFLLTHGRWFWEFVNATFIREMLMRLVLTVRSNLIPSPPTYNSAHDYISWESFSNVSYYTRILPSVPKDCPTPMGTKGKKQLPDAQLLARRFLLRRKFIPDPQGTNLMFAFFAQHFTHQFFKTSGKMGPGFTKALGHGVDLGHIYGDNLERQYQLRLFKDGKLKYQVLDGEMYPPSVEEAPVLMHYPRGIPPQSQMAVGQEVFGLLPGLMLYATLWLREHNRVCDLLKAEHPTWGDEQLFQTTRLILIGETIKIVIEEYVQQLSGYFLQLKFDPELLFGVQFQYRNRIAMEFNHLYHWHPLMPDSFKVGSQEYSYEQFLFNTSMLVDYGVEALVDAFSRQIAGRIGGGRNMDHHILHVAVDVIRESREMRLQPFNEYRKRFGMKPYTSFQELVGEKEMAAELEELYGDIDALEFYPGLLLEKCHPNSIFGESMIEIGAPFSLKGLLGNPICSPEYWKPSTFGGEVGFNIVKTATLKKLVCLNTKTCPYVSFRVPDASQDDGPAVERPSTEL
UniProt P37288, whole entry: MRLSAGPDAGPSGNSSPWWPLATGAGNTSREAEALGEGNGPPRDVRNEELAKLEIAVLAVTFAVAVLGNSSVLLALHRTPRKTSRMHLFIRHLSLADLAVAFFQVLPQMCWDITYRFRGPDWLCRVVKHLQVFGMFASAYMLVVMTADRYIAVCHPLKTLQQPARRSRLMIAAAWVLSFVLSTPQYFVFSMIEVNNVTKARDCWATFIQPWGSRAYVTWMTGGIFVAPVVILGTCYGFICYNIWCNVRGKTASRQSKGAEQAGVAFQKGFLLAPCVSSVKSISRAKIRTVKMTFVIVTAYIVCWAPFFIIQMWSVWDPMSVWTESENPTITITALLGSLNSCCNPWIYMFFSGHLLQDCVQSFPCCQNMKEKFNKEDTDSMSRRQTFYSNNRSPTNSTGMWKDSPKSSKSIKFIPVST
UniProt P14780: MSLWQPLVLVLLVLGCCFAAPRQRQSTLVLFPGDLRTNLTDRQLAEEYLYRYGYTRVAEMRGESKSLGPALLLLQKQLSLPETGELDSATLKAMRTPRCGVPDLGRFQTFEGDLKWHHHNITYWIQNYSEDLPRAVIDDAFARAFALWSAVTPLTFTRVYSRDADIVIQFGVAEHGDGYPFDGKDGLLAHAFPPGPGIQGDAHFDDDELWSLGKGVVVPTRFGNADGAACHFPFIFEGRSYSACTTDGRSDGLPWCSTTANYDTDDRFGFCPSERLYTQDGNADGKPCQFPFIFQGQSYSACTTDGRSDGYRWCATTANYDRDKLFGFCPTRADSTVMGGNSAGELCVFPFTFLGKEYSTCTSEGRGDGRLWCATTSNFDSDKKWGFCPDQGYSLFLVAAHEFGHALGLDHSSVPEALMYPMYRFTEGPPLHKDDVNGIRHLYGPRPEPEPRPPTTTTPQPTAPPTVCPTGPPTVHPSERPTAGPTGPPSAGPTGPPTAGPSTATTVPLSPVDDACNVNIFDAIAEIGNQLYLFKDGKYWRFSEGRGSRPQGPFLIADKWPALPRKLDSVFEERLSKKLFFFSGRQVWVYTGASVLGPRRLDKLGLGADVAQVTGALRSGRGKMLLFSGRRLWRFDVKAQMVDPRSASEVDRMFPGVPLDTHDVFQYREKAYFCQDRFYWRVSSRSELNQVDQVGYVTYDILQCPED
UniProt P41143, whole entry: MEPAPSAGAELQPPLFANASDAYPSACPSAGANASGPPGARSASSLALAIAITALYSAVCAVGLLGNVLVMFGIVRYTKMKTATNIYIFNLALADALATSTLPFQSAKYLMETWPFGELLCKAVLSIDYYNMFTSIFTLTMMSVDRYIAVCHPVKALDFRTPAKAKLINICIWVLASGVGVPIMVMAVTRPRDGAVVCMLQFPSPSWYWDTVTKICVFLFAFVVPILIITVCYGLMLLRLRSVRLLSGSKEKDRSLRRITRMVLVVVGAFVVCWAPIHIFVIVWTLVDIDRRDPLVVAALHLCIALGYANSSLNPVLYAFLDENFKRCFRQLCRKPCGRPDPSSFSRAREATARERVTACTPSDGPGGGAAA
UniProt P15127, 27-759 limits assumed: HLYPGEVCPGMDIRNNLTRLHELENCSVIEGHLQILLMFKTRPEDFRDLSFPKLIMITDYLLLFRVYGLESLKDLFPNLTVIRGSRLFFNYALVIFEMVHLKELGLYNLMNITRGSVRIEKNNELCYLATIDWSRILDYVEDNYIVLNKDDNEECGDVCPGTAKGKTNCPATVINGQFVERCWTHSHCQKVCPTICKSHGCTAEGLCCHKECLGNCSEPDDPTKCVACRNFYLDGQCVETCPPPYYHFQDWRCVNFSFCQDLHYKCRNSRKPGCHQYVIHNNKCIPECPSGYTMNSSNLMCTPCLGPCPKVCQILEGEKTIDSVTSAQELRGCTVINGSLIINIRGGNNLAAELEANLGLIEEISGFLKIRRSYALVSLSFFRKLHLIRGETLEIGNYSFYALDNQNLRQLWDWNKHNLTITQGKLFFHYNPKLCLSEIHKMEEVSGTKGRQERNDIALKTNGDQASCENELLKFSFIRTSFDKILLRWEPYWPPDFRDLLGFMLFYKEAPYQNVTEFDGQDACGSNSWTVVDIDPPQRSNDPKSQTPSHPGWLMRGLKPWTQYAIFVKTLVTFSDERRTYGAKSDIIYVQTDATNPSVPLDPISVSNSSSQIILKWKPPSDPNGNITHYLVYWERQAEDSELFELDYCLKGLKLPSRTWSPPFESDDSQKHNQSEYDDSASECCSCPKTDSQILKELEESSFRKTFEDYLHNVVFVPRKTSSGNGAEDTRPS
UniProt P15127, 764-1383 limits assumed: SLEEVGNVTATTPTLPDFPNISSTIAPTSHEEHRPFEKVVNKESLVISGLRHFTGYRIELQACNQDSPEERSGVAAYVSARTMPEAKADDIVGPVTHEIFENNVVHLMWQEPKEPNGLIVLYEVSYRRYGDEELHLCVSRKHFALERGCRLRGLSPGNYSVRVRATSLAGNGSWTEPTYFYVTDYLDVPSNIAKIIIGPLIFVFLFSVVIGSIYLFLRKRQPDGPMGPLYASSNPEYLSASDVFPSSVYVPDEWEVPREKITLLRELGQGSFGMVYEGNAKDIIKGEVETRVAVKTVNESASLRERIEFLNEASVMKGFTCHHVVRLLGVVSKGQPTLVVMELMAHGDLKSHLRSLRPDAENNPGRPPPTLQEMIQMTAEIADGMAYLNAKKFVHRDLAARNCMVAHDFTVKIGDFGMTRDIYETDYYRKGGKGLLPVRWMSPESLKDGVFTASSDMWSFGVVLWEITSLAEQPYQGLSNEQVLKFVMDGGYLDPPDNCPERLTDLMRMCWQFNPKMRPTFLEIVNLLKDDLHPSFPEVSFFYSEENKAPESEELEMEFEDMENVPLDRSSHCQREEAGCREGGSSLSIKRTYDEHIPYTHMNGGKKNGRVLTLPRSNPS
UniProt P41597: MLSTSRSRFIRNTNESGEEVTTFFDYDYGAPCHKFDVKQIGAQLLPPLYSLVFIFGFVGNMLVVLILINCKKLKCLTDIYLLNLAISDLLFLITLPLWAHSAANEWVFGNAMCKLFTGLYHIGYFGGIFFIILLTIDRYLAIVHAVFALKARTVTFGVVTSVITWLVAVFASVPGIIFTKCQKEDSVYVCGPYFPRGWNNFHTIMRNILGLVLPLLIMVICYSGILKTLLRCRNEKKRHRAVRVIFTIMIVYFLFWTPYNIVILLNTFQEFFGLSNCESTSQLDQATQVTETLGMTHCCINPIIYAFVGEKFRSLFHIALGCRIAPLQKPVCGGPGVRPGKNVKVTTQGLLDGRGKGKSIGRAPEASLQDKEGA

Columns and labels:
[1] = target: Aldo-keto reductase family 1 member B1 (Rattus norvegicus, UniProt P07943); assay type: tissue-based, Lens of camera-type eye;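 note: inhibition of aldose reductase enzyme activity, measured with DL-glyceraldehyde as the substrate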
[2] = target: T1, Type-2 angiotensin II receptor (Homo sapiens, UniProt P50052); assay type: cell-based; conditions: cho-k1
T1 sequence (P50052 whole entry): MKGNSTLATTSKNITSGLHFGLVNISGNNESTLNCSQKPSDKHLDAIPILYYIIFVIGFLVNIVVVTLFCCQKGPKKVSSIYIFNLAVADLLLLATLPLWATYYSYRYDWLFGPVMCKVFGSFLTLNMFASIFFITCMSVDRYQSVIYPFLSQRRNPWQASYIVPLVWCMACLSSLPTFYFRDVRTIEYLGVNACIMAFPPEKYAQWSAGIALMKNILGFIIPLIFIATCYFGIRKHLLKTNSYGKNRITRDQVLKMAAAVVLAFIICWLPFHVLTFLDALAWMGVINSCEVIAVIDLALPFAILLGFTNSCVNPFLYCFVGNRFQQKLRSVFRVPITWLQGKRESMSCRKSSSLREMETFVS

Melanocortin receptor 4 = Melanocortin receptor 4 (Homo sapiens, UniProt P32245); assay type: cell membranes, Membrane; conditions: hek293
[3] = target: 5-hydroxytryptamine receptor 4 (Cavia porcellus, UniProt O70528); assay type: cell membranes, Dunkin-Hartley, Striatum, Membrane
Nitric oxide synthase 1 = Nitric oxide synthase 1 (Rattus norvegicus, UniProt P29476); assay type: tissue-based, Cerebellum
[4] = target: Prostaglandin G/H synthase 1 (Homo sapiens, UniProt P23219); assay type: tissue-based; conditions: platelet;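 note: inhibition of COX-1 enzyme activity, with arachidonic acid supplied as substrate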
Vasopressin V1a receptor = Vasopressin V1a receptor (Homo sapiens, UniProt P37288); assay type: cell membranes, Membrane; conditions: hek293
[5] = target: T2, C-X-C chemokine receptor type 1 (Homo sapiens, UniProt P25024)
T2 sequence (P25024 whole entry): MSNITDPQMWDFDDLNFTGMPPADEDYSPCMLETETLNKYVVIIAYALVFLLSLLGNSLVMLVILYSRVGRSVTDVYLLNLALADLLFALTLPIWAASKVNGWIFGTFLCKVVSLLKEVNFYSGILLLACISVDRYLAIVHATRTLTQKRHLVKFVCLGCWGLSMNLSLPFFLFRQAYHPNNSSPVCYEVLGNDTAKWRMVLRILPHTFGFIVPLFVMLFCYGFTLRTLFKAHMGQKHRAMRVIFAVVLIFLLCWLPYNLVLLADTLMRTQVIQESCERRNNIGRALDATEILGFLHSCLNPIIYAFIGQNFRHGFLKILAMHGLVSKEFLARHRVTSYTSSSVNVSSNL

[6] = target: Matrix metalloproteinase-9 (Homo sapiens, UniProt P14780); assay type: cell-based;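 note: inhibition of isolated MMP-9 enzyme activity toward a synthetic peptide substrate, from the DrugMatrix protease screening panel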
[7] = target: Delta-type opioid receptor (Homo sapiens, UniProt P41143); assay type: cell membranes, Membrane; conditions: hek293
Insulin receptor = Insulin receptor (Rattus norvegicus, UniProt P15127); assay type: cell membranes, Wistar, Liver, Membrane
[8] = target: C-C chemokine receptor type 2 (Homo sapiens, UniProt P41597); assay type: cell membranes, Membrane; conditions: cho-k1
[9] = target: T3, Receptor-type tyrosine-protein phosphatase C (Homo sapiens, UniProt P08575); design: species or system Escherichia coli;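 note: inhibition of CD45 enzyme activity measured using DiFMUP as substrate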
T3 sequence (P08575 whole entry): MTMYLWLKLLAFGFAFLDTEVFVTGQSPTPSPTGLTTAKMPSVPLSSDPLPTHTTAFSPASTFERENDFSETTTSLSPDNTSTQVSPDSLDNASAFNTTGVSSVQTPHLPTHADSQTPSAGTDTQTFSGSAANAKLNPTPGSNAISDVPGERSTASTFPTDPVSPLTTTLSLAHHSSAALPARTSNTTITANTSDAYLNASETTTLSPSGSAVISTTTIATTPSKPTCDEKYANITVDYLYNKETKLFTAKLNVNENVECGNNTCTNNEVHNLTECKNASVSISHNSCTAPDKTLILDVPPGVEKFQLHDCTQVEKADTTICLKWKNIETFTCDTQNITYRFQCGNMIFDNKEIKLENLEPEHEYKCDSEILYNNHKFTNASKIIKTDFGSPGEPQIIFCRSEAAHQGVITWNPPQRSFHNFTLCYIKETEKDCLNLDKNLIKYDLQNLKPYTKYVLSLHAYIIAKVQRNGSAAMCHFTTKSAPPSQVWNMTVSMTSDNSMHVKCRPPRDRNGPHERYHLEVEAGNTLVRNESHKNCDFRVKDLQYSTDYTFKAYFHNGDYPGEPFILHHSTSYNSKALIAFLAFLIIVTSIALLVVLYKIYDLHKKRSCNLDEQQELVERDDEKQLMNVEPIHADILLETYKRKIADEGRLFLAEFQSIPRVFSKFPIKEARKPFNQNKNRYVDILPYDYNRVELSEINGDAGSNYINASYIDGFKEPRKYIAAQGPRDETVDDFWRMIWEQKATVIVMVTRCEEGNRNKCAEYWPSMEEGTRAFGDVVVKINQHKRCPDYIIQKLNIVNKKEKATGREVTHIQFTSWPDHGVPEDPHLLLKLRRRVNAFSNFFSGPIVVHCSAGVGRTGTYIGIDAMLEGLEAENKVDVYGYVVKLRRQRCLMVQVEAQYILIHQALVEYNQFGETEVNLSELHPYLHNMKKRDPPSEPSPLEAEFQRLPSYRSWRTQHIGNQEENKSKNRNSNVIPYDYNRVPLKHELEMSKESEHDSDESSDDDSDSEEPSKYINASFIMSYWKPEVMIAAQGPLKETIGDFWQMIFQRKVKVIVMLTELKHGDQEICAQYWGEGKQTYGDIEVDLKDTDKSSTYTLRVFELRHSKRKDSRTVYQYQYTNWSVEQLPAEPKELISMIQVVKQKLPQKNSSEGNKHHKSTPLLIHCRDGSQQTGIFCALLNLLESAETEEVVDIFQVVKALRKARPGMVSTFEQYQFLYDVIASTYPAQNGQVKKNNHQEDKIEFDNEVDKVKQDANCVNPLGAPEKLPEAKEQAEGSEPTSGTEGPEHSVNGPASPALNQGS

Measured: IC50
Note: in other assays of this panel Not Active means under 50% inhibition at 10 µM.

CCN(CC)C(=O)N[C@H]1C=C2c3cccc4[nH]cc(c34)C[C@H]2N(C)C1 [LISURIDE]
Not Active: all assays above

C(=C\c1ccccc1)/CN1CCN(C(c2ccccc2)c2ccccc2)CC1 [CINNARIZINE]
Not Active: all assays above

Clc1ccc2c(c1)CCc1cccnc1C2=C1CCNCC1 [DESLORATADINE]
Not Active: all assays above
